This is an account of results in PubChem BioAssay AID1508600 (Functional Genomics Laboratory (NCATS/FGL), 2020).

Among all 53,000 sequences or so, about 3,700 (7%) were called active.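 The calls were made as follows: active = gene knockdowns whose robust z-score for IL-1 alpha signal is at least 2 or at most -2, so actives lie on both sides; inactive = the rest.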 The list shows a part of the results.

The assay can be described thus: Components of the Cytosolic LPS Sensing Pathway: Gene Identification via Genome-wide siRNA Screen.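 Also: robust z of the log signal after scaling to non-targeting control siRNA wells of the plate.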 To be noted: RAW264.7 macrophages, IL-1a HTRF, actives lie on both sides, screened at 100 nM (by protocol), cells primed 5 h with Pam3CSK4 first. An outline of the steps: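 Cells (RAW264.7, 1×10^4 per well) were transfected with siRNA at 100 nM and cultured 48h at 37 degrees C. Pam3CSK4 was added for 5 hours; LipidA transfection followed for 24 hour. IL-1a was then measured by HTRF.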
As for GCAUGAAUUUCGACAACCCTT against Lrp8, the z-score was inactive: -0.126.

As to GGACAGAACUGGCUUCCAUTT against Ctrb1, the z-score was inactive: 2.

Turning to GGAGUGCUUAAAAUUCAAGTT against Bcap29, the z-score is inactive: 1.89.

Turning to GGAAAGAGAUGAUUGAAAUTT against Cts3, the z-score was inactive: 0.0164.

With GGAGUAUUGGAAGUUACAATT against Ccnc, the z-score was inactive: -1.34.

As to GGUAUCUCCAGUCCAGAGUTT against Mrpl34, the z-score is inactive: -0.585.

For the sequence GGAGGUAGGAGCCAUAAGATT against Pter, the z-score was inactive: -0.58.

For GGAGUUCUUCUAGCCAUGUTT against Olfr633, the z-score was inactive: 0.0435.

Take GGACAUAGCACGUCUUUUGTT against Ccdc50: the z-score was inactive: -0.584.

Consider GCUAGUAAACAGAAUCCUCTT against Tubgcp2, for which the z-score is inactive: 1.35.

As for GGAAUCAAUGUGCUUCUAATT against Cyp39a1, the z-score is inactive: -0.556.

On to GGAUCUUGGUUACCCUAGUTT against Casp9, for which the z-score is inactive: -1.93.

For GGACUGCCCUUUGGACAAATT against Vmn1r192, the z-score was inactive: 1.37.

On to GCCCAAUCUACACAGACCATT against Slc7a13, for which the z-score was inactive: -0.939.

As for GGUGAGGAGGCAAAGAUUCTT against Fkbpl, the z-score is inactive: -0.82.

GGAGAAUGAAAGGAUUCUGTT against Cabcoco1: the z-score was inactive: 0.0483.

Consider “CCUAAUCUUUGUUCAGACCTT against 4933431E20Rik”, for which the z-score is inactive: 0.296.

Regarding CCAUCAGCUUUGCAGGAUGTT against Olfr1410, the z-score was inactive: -0.256.

Turning to CCAAAUCUGGACGGCAAAATT against Sdc1, the z-score was inactive: 0.243.

Consider GCUUUCUUAGCAUUAAAUCTT against Zkscan3, for which the z-score was inactive: -0.274.

In the case of CCGUGGGCAAACAAAUCUUTT against Hoxa3, the z-score is inactive: -0.525.

As to GGUCUGAGCCUUGUCUUUATT against Pdx1, the z-score was active: 2.92.

As to GCCUAGACAAAGUGAUGGATT against Vamp7, the z-score is inactive: 0.554.

As to GGAUACGCUUGUCCCACCATT against Mdm1, the z-score is inactive: -0.649.

As to GGCUCAUCUACCACGAGGUTT against Lce1m, the z-score is inactive: 0.778.

GGACUUCUUCUUGUACAACTT against Capn3: the z-score is inactive: 1.03.

Regarding GGAGGUGCGCUUCUUUAACTT against Chst5, the z-score was inactive: 0.24.

As for CCAUAGUAGCUACCUUGAUTT against Fam107a, the z-score was inactive: 0.537.

Take GCGACUUAUGAAAUACUGGTT against Ache: the z-score is inactive: 0.0142.

With CGAUAAUGAAAGUGACCAUTT against Uri1, the z-score is inactive: -0.0814.

As for GGCAAGAUCCACAUCAACUTT against Tmem178b, the z-score is inactive: -0.9.

Turning to GCAGGCCAGAGUAGUCAUGTT against Them6, the z-score is inactive: 0.579.

Regarding GGCCACCAUUUCUGAAAUCTT against Tecr, the z-score was inactive: 0.714.

GGUCACUAGUUUAUUUUGATT against Aida: the z-score was inactive: -0.205.

As for “CGGGCCAUUAACAACCUCUTT against 4930433I11Rik”, the z-score is inactive: -0.318.

Regarding GGGAGCUAGAUAUCCGGAATT against Ndufv3, the z-score was inactive: 0.113.

Take GGUCUGUGUCAAAAACCACTT against Klk1b11: the z-score was inactive: -1.11.

On to CCUUGUUCAAAAAGAUGGCTT against Serpina1f, for which the z-score is active: -2.08.

In the case of CCCUACCCAGUUUCAGUUGTT against Phf12, the z-score was inactive: 0.206.

Turning to GCCCUAUCUACCAUAACACTT against Dok3, the z-score was active: -2.11.

On to GGUGCUGACUGCUUUUGGATT against Hbb-y, for which the z-score is inactive: 1.32.

With GGCAUUCGAAGGGUCUACATT against Kcna7, the z-score is inactive: -1.22.

As for GGAAAAAUGACUGAUCUCUTT against Unc5c, the z-score is inactive: -0.0354.

Consider GCCAAAUCAUGGGUCUGGUTT against Npas3, for which the z-score is inactive: 0.969.

Regarding GGUUAUCCCAACUACCAGCTT against Timm17b, the z-score was inactive: 0.734.

For the sequence GGAAGAAAAGGCUUCUCUUTT against Ube3c, the z-score was inactive: -0.00788.

For GGGCUGUGAUAUGCAACUCTT against Teddm2, the z-score was inactive: -0.988.

Consider GCGAUUAACGGAUCGUACCTT against Letmd1, for which the z-score was inactive: 0.192.

For GGACAAGCUCCAAAACAACTT against Srsf4, the z-score was inactive: -0.292.

Turning to “GGACCUGCGUUUUGGCACATT against Aadacl4fm1”, the z-score is inactive: 0.46.

Regarding GGAGUUUCUCAGUGAAGGATT against Traf4, the z-score was inactive: 0.285.

As to GGACAUUUCCUCGCUUGACTT against L3mbtl2, the z-score was inactive: 0.0388.

On to CCUCCUCAGUAUCCGUAUATT against Nudt21, for which the z-score is inactive: -0.632.

On to GGACAUCAUCCAGGAAAACTT against Bcar3, for which the z-score is inactive: -0.347.

For “GCUACAAACAACAAGUGACTT against 2210408I21Rik”, the z-score is inactive: 0.166.

On to “GCUUCUGAUUGAGAGUUCATT against D830044D21Rik”, for which the z-score was inactive: 0.00762.

Take GGCUUUACUUCUUGCUGUGTT against Olfr1412: the z-score is inactive: -0.918.

Consider GGUGUAUUAAAAUGUCAGUTT against Marveld2, for which the z-score was inactive: 1.92.

As to CGUGAAGAUUCUUAAGGCGTT against Ppil1, the z-score was inactive: 0.716.

GCGGAAGAAGGCUUGUUACTT against Wdr95: the z-score is inactive: 0.499.

Take GGAGCCGACUUCUUAUUCGTT against Mastl: the z-score was inactive: -0.914.

For GCCCUGAUGCCAAAUUCCATT against Serinc3, the z-score is inactive: -0.35.

Consider GCCACGAAAAGAAGAGAAUTT against Vpreb2, for which the z-score is inactive: 1.08.

Take GGAUGGUGAUUUGUUUCCUTT against Morf4l2: the z-score was inactive: 0.125.

With GGACAGCUACAGGAAAAUGTT against Tjp1, the z-score is inactive: -0.124.

GGAAGGUGCUAAAAAUAUATT against Pdhx: the z-score is inactive: 0.23.

With CCAGCACUAAAAGUAAGUGTT against Vmn1r177, the z-score was inactive: 0.154.

On to GCAAUAAGGUAAAUGACUATT against Ercc6, for which the z-score is inactive: -0.0442.

CCUUCUACCUACUUAUUGGTT against Tomm70a: the z-score is inactive: 0.178.

On to GGAAGAUGGUAUUCCAUAUTT against Dmc1, for which the z-score was inactive: -0.368.

With GGUUUCGAGAAAACAACAATT against Miip, the z-score is inactive: 0.566.

On to “GGACAGUUGACCUAGCAUATT against 9330155M09Rik”, for which the z-score is inactive: 0.964.

With GGAUAUAGCUCAACACUUUTT against Mfsd7a, the z-score was inactive: 0.751.

Consider GCUAGACCGAAGAAUCCUGTT against Spatc1, for which the z-score is inactive: -1.1.

Regarding GCUUCAGAAGCUUAAUAGCTT against Cited1, the z-score was inactive: -0.316.

On to GCUCAAAUGUUCUAAAAGCTT against Acmsd, for which the z-score is inactive: -0.332.

Regarding GGUGGUCCAGACCAAGUACTT against Pfdn5, the z-score was inactive: -1.02.

For CCAAGCGAAUGCUGGACAUTT against Cox4i1, the z-score was active: 3.44.

As to GGACUACGCCGACUUUGUCTT against Cog2, the z-score was inactive: -1.89.

Regarding GCAAGCAAGGAAAAAGCUATT against Glis3, the z-score was inactive: -0.468.

As for GGACACACUCUACUUCCCATT against Mrgprg, the z-score was inactive: -0.196.

As for CGGUCUGAACUACUGUGUGTT against Shc4, the z-score was inactive: 0.631.

GGAGUGCAACAAGAAGUUCTT against Klf13: the z-score was inactive: 1.26.

Regarding GGAUUGCAUUAGGAAAGAATT against Fancl, the z-score was inactive: 0.0536.

For GGACAAGAUAUCCAAGUGGTT against Dennd2a, the z-score was inactive: 1.97.

In the case of GCAAUGGAACCACCUCUGATT against Zic5, the z-score is inactive: 1.41.

Turning to GGCUUUCAGGCUUUUUGCATT against Spink12, the z-score was inactive: 0.961.

Consider GGAACUUGAUCAAGAAAAUTT against Matr3, for which the z-score was inactive: -0.0966.

On to GGAGAAAAUUUUCACCACUTT against Slc25a24, for which the z-score was inactive: -1.62.

Regarding GCCAUAGCUCGAGACUCUCTT against Tfap2b, the z-score is inactive: 0.0596.

Regarding GGUCUCAAGUUUUACAUUCTT against Prss35, the z-score was active: 2.2.

Consider CCUGAUAGUCUUGAAGAUGTT against Orm2, for which the z-score is inactive: 0.696.

GGUAGUCACUAUCCUGAUUTT against Olfr1086: the z-score is inactive: -0.212.

Regarding CCCUAAAGAGUGGGAUGUATT against Pi15, the z-score was inactive: 0.709.

With GGCUCGAGAGAAGAAGUACTT against Gjb5, the z-score was inactive: -0.14.

Consider CCCAUCGAUCCAUCACAUUTT against Olfr63, for which the z-score is inactive: -1.47.

In the case of GCUUUUAGGGAUUAUUCAGTT against Zfp606, the z-score is inactive: 1.21.

As to GGAAGCCAAGUGUACAUUUTT against Clca3b, the z-score is inactive: 0.816.

Turning to GGAGGUAAAGCUAAGUAAATT against Gtf3c2, the z-score is inactive: 1.15.

Take GGUUCUGGCUCACAUUCACTT against H2-M3: the z-score was inactive: 0.979.

In the case of CGCGUGAAAGGUUUGAGAGTT against Cd24a, the z-score was inactive: -0.875.

In the case of GGAGUAGUAGCUAUUAUAUTT against Kctd9, the z-score was inactive: 1.89.

Take GGCUAGAGAAAUAGUGUUGTT against Reep1: the z-score was inactive: 0.218.

As for “GGUGCCAAUCCUUUGGACATT against 4930590J08Rik”, the z-score is active: 3.

Take GGCCUGCUAUAUGCAUUCCTT against Krtap12-1: the z-score is inactive: 0.974.

For GCUUUUCAGUAACUGUCAGTT against Ccrl2, the z-score was inactive: -0.376.
